# In publication PMC9547917:
# No constants are given. Whether binding was seen depends on the method and setting. For part of these data: In cells and extracts the contact can be indirect. Some entries that bind do so weakly or less than the wild type. For part of these data: Sequences can lack the tags named with a protein.
# T1: FAK (401–693)-HA (human) (UniProt Q05397)
# T1 sequence: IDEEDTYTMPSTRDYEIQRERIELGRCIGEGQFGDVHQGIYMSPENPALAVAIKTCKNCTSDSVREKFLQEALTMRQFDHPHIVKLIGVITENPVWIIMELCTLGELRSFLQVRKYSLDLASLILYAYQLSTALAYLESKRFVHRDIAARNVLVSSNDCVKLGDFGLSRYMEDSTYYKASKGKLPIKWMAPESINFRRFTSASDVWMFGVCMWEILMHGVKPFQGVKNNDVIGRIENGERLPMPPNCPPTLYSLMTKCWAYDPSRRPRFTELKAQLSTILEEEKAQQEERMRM
# T2: FAK (1–400)-HA (human) (UniProt Q05397)
# T2 sequence: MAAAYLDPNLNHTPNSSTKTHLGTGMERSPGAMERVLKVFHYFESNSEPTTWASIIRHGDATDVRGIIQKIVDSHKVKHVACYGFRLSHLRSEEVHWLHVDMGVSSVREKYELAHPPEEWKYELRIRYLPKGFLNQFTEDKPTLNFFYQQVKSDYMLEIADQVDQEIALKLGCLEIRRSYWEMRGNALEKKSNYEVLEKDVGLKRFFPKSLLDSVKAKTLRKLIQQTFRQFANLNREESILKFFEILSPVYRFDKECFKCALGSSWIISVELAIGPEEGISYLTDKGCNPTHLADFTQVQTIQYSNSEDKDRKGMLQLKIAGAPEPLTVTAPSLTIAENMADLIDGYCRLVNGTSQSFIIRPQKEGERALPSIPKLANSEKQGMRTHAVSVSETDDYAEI
# B1: Flag-tagged DUSP22 (dual specificity phosphatase 22), full length (protein, UniProt Q9NRW4 1-184)
# chain: MGNGMNKILPGLYIGNFKDARDAEQLSKNKVTHILSVHDSARPMLEGVKYLCIPAADSPSQNLTRHFKESIKFIHECRLRGESCLVHCLAGVSRSVTLVIAYIMTVTDFGWEDALHTVRAGRSCANPNVGFQRQLQEFEKHEVHQYRQWLKEEYGESPLQDAEEAKNILAAPGILKFWAFLRRL
# B2: DUSP22, endogenous in mouse liver (protein, UniProt Q99N11 1-184)
# chain: MGSGMSQILPGLYIGNFKDARDAEQLSRNKVTHILSVHDTARPMLEGVKYLCIPAADTPSQNLTRHFKESIKFIHECRLQGESCLVHCLAGVSRSVTLVIAYIMTVTDFGWEDALHTVRAGRSCANPNLGFQRQLQEFEKHEVHQYRQWLREEYGENPLRDAEEAKNILAAPGILKYWAFLRRL
# B3: DUSP22 (1–144)-Flag (domain or fragment, UniProt Q9NRW4 1-144)
# chain: MGNGMNKILPGLYIGNFKDARDAEQLSKNKVTHILSVHDSARPMLEGVKYLCIPAADSPSQNLTRHFKESIKFIHECRLRGESCLVHCLAGVSRSVTLVIAYIMTVTDFGWEDALHTVRAGRSCANPNVGFQRQLQEFEKHEVH
# How the values were obtained:
# [1] = target: T1, FAK (401–693)-HA (human); assay: co-IP; L02 cells transfected with Flag-tagged DUSP22 and HA-tagged FAK (full length or truncated); IP lysis buffer, Protein A/G magnetic agarose beads, antibodies at 4 °C overnight; immunoblot with anti-Flag and anti-HA
# [2] = target: T2, FAK (1–400)-HA (human); assay: as above
# [3] = target: HA-tagged FAK (focal adhesion kinase), full length (human) (UniProt Q05397); assay: as above
# [4] = target: GST-FAK (UniProt Q05397); assay: pull-down; GST-DUSP22 or GST-FAK from E. coli extracts on GST beads (4 °C, 1 h), then incubated 4 h with Flag-tagged FAK or Flag-tagged DUSP22 prepared by IP; eluate blotted with anti-Flag; GST alone as control; both purified
# [5] = target: FAK, endogenous in mouse liver (mouse (endogenous in liver)) (UniProt P34152); assay: co-IP; liver tissue of WT mice after a 24-week HFHC; endogenous proteins; IgG as control
Binder,binding [1],binding [2],binding [3],binding [4],binding [5]
B1,binds,binds,binds,binds,–
B2,–,–,–,–,binds
B3,–,–,binds,–,–
